This passage reports binding results from article PMC11961749.

Sequences of proteins named here, by UniProt entry; tags and fusion partners are left off.
UniProt Q8BKJ9: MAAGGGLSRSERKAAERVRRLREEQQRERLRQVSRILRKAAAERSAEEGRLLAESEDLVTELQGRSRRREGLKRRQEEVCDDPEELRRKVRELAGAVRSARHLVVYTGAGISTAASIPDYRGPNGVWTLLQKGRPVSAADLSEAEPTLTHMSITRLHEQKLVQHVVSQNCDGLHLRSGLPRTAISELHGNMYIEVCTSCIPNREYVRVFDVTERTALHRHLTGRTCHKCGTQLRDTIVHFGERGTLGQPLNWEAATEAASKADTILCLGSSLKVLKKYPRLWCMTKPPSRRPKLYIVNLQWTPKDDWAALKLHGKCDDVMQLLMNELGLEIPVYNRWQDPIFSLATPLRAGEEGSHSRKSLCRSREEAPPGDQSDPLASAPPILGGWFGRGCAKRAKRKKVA
UniProt Q9NRC8: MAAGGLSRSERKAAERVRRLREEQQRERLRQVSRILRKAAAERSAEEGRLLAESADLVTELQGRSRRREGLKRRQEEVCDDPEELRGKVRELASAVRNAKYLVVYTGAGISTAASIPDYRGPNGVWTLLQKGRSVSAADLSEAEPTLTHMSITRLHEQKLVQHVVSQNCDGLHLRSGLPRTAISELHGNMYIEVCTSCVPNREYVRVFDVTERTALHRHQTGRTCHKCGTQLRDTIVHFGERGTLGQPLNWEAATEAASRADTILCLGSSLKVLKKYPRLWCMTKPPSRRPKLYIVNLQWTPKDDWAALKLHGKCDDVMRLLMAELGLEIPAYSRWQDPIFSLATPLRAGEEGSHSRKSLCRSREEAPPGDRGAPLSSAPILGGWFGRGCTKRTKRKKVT

Assay [1] concerns the target T1, FLAG-tagged NRF2 (wild type) (UniProt Q16236).
T1 sequence: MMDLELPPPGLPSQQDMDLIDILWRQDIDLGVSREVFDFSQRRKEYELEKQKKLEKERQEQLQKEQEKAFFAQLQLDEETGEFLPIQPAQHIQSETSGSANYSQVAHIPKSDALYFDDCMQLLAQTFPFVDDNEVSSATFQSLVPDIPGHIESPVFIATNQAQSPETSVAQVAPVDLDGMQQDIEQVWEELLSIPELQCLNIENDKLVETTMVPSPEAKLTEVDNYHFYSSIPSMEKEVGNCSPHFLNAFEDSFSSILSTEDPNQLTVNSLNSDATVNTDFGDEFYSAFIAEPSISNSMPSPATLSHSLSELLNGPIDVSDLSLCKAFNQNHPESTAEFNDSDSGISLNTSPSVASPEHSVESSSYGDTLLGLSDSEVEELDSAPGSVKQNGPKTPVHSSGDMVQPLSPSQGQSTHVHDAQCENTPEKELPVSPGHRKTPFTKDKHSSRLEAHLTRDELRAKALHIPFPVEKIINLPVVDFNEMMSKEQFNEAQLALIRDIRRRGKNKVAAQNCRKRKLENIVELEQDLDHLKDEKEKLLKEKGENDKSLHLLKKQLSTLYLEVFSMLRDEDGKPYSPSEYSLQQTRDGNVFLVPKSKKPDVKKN
In words: co-IP; Huh7 cells transfected with FLAG-tagged SIRT7, FLAG-tagged SIRT7 HY or FLAG-tagged NRF2; endogenous partner detected by Western blot. Background: Immunoblotting shows a protein as a band on a membrane.

Assay [2] has as its target SIRT7 (endogenous, mouse primary hepatocytes) (mouse (endogenous in primary mouse hepatocytes)) (UniProt Q8BKJ9). Put plainly: co-IP; endogenous SIRT7 and NRF2 in mouse primary hepatocytes; 400 ug total protein, Biolinkedin Basic Co-IP kit, Western blot.
A further assay addresses FLAG-tagged SIRT7 (UniProt Q9NRC8). Put plainly: co-IP; Huh7 cells transfected with FLAG-tagged SIRT7, FLAG-tagged SIRT7 HY or FLAG-tagged NRF2; endogenous partner detected by Western blot.

These are yes or no findings as the source states them, for the method shown. Binding seen in cells or lysates may run through a third protein. Some results given as binding are weak or reduced against the parent protein; the word gives no strength. For part of these data: Tags and fused reporters may be left off the sequences shown.

“SIRT7 (endogenous, Huh7) (from UniProt Q9NRC8 1-400) (enzyme)”: the binding result in assay [1] is listed as “binds”.

B1: NRF2, nuclear factor-E2-related factor 2 (endogenous, mouse primary hepatocytes) (protein, UniProt Q60795 1-597)
chain: MMDLELPPPGLQSQQDMDLIDILWRQDIDLGVSREVFDFSQRQKDYELEKQKKLEKERQEQLQKEQEKAFFAQFQLDEETGEFLPIQPAQHIQTDTSGSASYSQVAHIPKQDALYFEDCMQLLAETFPFVDDHESLALDIPSHAESSVFTAPHQAQSLNSSLEAAMTDLSSIEQDMEQVWQELFSIPELQCLNTENKQLADTTAVPSPEATLTEMDSNYHFYSSISSLEKEVGNCGPHFLHGFEDSFSSILSTDDASQLTSLDSNPTLNTDFGDEFYSAFIAEPSDGGSMPSSAAISQSLSELLDGTIEGCDLSLCKAFNPKHAEGTMEFNDSDSGISLNTSPSRASPEHSVESSIYGDPPPGFSDSEMEELDSAPGSVKQNGPKAQPAHSPGDTVQPLSPAQGHSAPMRESQCENTTKKEVPVSPGHQKAPFTKDKHSSRLEAHLTRDELRAKALHIPFPVEKIINLPVDDFNEMMSKEQFNEAQLALIRDIRRRGKNKVAAQNCRKRKLENIVELEQDLGHLKDEREKLLREKGENDRNLHLLKRRLSTLYLEVFSMLRDEDGKPYSPSEYSLQQTRDGNVFLVPKSKKPDTKKN
With B1, the binding entry in assay [2] was “binds”.

B2: NRF2, nuclear factor-E2-related factor 2 (endogenous, Huh7) (protein, UniProt Q16236 1-605)
chain: MMDLELPPPGLPSQQDMDLIDILWRQDIDLGVSREVFDFSQRRKEYELEKQKKLEKERQEQLQKEQEKAFFAQLQLDEETGEFLPIQPAQHIQSETSGSANYSQVAHIPKSDALYFDDCMQLLAQTFPFVDDNEVSSATFQSLVPDIPGHIESPVFIATNQAQSPETSVAQVAPVDLDGMQQDIEQVWEELLSIPELQCLNIENDKLVETTMVPSPEAKLTEVDNYHFYSSIPSMEKEVGNCSPHFLNAFEDSFSSILSTEDPNQLTVNSLNSDATVNTDFGDEFYSAFIAEPSISNSMPSPATLSHSLSELLNGPIDVSDLSLCKAFNQNHPESTAEFNDSDSGISLNTSPSVASPEHSVESSSYGDTLLGLSDSEVEELDSAPGSVKQNGPKTPVHSSGDMVQPLSPSQGQSTHVHDAQCENTPEKELPVSPGHRKTPFTKDKHSSRLEAHLTRDELRAKALHIPFPVEKIINLPVVDFNEMMSKEQFNEAQLALIRDIRRRGKNKVAAQNCRKRKLENIVELEQDLDHLKDEKEKLLKEKGENDKSLHLLKKQLSTLYLEVFSMLRDEDGKPYSPSEYSLQQTRDGNVFLVPKSKKPDVKKN
Turning to B2, the binding result in the assay with FLAG-tagged SIRT7 was “binds”.
